These are yes or no findings as the source states them, for the method shown. Binding seen in cells or lysates may run through a third protein. These calls come from enrichment with a bait or labelling near it, and not all partners need be listed. For some assays here: No binding means not detected with the bait.
B1: Homer1 (protein, UniProt Q9Z2Y3 1-366)
chain: MGEQPIFSTRAHVFQIDPNTKKNWVPTSKHAVTVSYFYDSTRNVYRIISLDGSKAIINSTITPNMTFTKTSQKFGQWADSRANTVYGLGFSSEHHLSKFAEKFQEFKEAARLAKEKSQEKMELTSTPSQESAGGDLQSPLTPESINGTDDERTPDVTQNSEPRAEPTQNALPFPHSAGDRTQALSHASSAISKHWEAELATLKGNNAKLTAALLESTANVKQWKQQLAAYQEEAERLHKRVTELECVSSQANAVHSHKTELNQTVQELEETLKVKEEEIERLKQEIDNARELQEQRDSLTQKLQEVEIRNKDLEGQLSDLEQRLEKSQNEQEAFRSNLKTLLEILDGKIFELTELRDNLAKLLECS
B2: Homer3 (protein, UniProt Q99JP6 1-356)
chain: MSTAREQPIFSTRAHVFQIDPTTKRNWIPAGKHALTVSYFYDATRNVYRIISIGGAKAIINSTVTPNMTFTKTSQKFGQWADSRANTVYGLGFASEQQLTQFAEKFQEVKEAARLAREKSQDGGEFTSTGLALASHQVPPSPLVSTNGPGEEKLFRSQSADTPGPTERERLKKMLSEGSVGEVQWEAEFFALQDSNQRLAGALREANAAATQWRQQLEVQRAEAELLRQRVAELEAQVAVEPVRAGEKEATSQSVEQLEARVQTKDQTLKNQSTGTREAPDTAEREETQQQVQDLETRNAELEQQLRSMECNLEEARAERERARAEVGRAAQLLDVRLFELSELREGLARLAEAAP
B3: Homer2, Q9QWW1 1-354 (protein)
chain: MGEQPIFTTRAHVFQIDPSTKKNWVPASKQAVTVSYFYDVTRNSYRIISVDGAKVIINSTITPNMTFTKTSQKFGQWADSRANTVFGLGFSSELQLTKFAEKFQEVREAARLARDKSQEKTETSSNHSQESGCETPSSTQASSVNGTDDEKASHASPADTHLKSENDKLKIALTQSAANVKKWEMELQTLRESNARLTTALQESAASVEQWKRQFSICRDENDRLRSKIEELEEQCSEINREKEKNTQLKRRIEELESEVRDKEMELKDLRKQSEIIPQLMSECEYVSEKLEAAERDNQNLEDKVRSLKTDIEESKYRQRHLKGELKSFLEVLDGKIDDLHDFRRGLSKLGTDN
B4: Homer1, Q9Z2Y3 1-366 (protein)
chain: B1 chain

Protein sequences, listed by entry. Tags and fused reporters are not part of them. Residues count along the entry.
UniProt Q3UVX5, residues 19-1203: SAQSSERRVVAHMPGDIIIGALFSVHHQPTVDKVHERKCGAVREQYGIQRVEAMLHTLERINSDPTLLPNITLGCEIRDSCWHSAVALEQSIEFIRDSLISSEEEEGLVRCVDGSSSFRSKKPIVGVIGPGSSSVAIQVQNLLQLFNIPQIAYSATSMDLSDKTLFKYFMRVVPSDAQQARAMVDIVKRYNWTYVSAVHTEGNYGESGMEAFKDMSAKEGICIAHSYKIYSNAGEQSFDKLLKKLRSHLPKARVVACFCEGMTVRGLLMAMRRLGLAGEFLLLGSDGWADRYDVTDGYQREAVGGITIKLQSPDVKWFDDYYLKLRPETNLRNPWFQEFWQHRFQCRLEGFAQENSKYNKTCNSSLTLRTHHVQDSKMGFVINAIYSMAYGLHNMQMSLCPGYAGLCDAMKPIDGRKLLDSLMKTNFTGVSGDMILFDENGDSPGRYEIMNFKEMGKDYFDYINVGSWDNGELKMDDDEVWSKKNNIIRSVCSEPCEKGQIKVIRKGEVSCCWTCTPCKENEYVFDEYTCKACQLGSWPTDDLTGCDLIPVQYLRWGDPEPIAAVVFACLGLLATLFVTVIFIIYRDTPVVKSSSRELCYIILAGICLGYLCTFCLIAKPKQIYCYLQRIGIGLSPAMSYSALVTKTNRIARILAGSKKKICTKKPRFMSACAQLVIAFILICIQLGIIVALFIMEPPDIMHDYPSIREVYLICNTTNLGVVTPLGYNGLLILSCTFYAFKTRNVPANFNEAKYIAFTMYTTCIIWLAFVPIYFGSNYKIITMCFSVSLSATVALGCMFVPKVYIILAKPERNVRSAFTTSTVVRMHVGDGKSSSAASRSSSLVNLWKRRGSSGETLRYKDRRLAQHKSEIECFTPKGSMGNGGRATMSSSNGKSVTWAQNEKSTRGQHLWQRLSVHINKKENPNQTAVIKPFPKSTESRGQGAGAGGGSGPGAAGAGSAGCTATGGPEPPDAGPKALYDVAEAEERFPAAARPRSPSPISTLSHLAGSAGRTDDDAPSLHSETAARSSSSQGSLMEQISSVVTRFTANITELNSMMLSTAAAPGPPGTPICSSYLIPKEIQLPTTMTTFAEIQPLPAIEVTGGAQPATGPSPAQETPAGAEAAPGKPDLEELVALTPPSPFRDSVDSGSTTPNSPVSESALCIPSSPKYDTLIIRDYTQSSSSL
UniProt P97772, residues 21-1199: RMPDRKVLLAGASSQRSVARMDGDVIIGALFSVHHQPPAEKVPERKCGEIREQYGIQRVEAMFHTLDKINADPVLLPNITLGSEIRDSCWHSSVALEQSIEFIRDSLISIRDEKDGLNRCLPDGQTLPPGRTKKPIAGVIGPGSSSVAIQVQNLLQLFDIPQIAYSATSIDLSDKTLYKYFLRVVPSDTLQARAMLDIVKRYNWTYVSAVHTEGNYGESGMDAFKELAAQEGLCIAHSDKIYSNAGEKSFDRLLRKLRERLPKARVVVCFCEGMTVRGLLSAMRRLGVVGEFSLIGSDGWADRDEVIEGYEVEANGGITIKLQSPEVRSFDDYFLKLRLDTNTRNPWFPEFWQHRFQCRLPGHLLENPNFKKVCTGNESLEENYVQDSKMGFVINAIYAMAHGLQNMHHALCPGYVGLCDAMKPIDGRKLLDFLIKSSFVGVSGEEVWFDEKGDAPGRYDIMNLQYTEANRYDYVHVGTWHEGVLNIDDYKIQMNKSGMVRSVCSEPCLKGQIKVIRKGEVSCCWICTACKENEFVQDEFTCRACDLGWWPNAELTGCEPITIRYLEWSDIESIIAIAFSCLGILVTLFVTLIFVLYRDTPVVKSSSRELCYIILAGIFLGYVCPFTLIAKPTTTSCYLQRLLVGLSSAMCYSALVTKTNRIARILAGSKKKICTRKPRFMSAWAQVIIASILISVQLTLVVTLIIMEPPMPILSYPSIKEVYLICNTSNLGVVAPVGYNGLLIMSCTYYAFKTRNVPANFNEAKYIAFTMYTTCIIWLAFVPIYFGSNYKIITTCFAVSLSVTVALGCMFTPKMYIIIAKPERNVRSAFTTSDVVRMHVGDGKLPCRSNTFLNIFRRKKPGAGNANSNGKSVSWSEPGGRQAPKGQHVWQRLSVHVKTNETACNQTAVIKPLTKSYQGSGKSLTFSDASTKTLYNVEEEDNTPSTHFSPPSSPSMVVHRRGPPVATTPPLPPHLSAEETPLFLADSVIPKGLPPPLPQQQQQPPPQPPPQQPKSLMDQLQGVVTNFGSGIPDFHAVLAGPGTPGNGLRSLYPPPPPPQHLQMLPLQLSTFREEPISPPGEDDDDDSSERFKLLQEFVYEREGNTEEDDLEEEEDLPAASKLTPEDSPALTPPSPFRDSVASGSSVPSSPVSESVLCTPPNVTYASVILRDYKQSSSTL

Experiments:
[1] = target: metabotropic glutamate receptor 5 (mouse (endogenous in hippocampus and cortex)) (UniProt Q3UVX5); assay: affinity purification with mass spectrometry; IP with anti-mGluR5 polyclonal antibody (10 ug, overnight, 4°C) from 1% n-dodecyl β-D-maltoside extracts (25 mM HEPES pH 7.4, 150 mM NaCl) of mouse hippocampus and cortex, Protein A/G agarose, FASP digestion, LC-MS/MS; mGluR5 knockout mice as negative control; filter: present in ≥3 of 4 WT IPs and ≥10-fold enriched
[2] = target: metabotropic glutamate receptor 5 (mouse (endogenous in hippocampus and cortex)) (UniProt Q3UVX5); assay: affinity purification with mass spectrometry; IP with anti-mGluR5 antibody from equal amounts (2 mg) of P2, microsome and P1 fractions of mouse hippocampus; SDS-PAGE and in-gel digestion, LC-MS/MS; empty bead control
[3] = target: metabotropic glutamate receptor 1, isoform a (mouse (endogenous in hippocampus and cortex)) (UniProt P97772); assay: affinity purification with mass spectrometry; reverse IP with monoclonal anti-mGluR1a antibody (BD Biosciences, clone G209-488) from mouse hippocampus extract, LC-MS/MS; non-mGluR1 antibody as negative control; >10-fold enrichment
[4] = target: metabotropic glutamate receptor 5 (mouse (endogenous in hippocampus and cortex)), Q3UVX5; assay: affinity purification with mass spectrometry; IP with anti-mGluR5 polyclonal antibody (10 ug, overnight, 4°C) from 1% n-dodecyl β-D-maltoside extracts (25 mM HEPES pH 7.4, 150 mM NaCl) of mouse hippocampus and cortex, Protein A/G agarose, FASP digestion, LC-MS/MS; mGluR5 knockout mice as negative control; filter: present in ≥3 of 4 WT IPs and ≥10-fold enriched; conditions: remark: other sources report otherwise
[5] = target: metabotropic glutamate receptor 1, isoform a (mouse (endogenous in hippocampus and cortex)), P97772; assay: affinity purification with mass spectrometry; reverse IP with monoclonal anti-mGluR1a antibody (BD Biosciences, clone G209-488) from mouse hippocampus extract, LC-MS/MS; non-mGluR1 antibody as negative control; >10-fold enrichment; conditions: remark: other sources report otherwise

Row | binding [1] | binding [2] | binding [3] | binding [4] | binding [5] | Binder
1 | binds | binds | – | – | – | B1
2 | binds | binds | binds | – | – | B2
3 | – | – | – | binds | no binding | B3
4 | – | – | – | – | no binding | B4
